# Test results published in paper PMC2976706.
# These are yes or no findings as the source states them, for the method shown. Binding seen in cells or lysates may run through a third protein. Some entries that bind do so weakly or less than the wild type. Tags and fused reporters may be left off the sequences shown.
# T1: Rb fused to BFP or EGFP (FRET) (human) (UniProt P06400)
# T1 sequence: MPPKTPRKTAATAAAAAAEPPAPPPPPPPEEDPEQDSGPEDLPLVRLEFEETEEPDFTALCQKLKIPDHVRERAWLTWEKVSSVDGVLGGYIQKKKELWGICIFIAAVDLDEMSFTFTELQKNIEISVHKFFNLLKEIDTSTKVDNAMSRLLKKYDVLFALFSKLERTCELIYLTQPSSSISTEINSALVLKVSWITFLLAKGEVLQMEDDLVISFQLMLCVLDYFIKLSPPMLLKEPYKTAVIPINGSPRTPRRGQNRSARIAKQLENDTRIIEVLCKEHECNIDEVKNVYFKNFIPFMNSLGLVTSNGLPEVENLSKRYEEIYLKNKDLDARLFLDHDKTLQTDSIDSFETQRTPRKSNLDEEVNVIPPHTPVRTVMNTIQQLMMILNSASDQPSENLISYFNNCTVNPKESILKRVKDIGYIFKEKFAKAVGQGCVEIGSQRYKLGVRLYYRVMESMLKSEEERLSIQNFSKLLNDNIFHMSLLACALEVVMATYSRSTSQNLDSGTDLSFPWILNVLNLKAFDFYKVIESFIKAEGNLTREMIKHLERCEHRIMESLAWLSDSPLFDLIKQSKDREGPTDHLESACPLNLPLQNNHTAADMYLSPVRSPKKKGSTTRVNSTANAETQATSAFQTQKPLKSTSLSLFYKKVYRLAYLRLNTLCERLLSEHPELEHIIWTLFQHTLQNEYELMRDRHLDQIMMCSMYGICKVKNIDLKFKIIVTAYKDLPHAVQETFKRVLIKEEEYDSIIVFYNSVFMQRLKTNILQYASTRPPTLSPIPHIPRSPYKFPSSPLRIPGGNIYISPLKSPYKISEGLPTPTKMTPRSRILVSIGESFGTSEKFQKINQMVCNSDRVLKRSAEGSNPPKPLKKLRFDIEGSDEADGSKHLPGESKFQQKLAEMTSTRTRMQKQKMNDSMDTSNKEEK
# T2: GST-Rb (379-928) (human) (UniProt P06400)
# T2 sequence: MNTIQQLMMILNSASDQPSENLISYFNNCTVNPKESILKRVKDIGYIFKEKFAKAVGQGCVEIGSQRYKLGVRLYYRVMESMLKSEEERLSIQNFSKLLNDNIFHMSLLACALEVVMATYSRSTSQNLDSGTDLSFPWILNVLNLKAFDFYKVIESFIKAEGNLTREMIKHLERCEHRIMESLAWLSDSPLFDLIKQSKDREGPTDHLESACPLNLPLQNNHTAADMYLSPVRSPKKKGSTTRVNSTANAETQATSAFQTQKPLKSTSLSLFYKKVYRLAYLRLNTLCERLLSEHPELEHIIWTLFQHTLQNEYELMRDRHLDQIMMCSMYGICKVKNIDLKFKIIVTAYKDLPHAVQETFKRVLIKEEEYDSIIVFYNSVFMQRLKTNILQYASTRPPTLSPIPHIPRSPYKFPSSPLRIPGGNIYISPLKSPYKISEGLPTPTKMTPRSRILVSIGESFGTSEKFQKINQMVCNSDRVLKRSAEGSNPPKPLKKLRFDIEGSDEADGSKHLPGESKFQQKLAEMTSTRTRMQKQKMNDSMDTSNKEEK
# Biological target: T1, Rb fused to BFP or EGFP (FRET) (human)
# Experiment: FRET or BRET; HeLa cells transiently transfected with EGFP and BFP fusion pairs; ratio of EGFP emission at 520 nm after excitation at 350 nm to that after 480 nm, at least 10 cells a pair
row,Binder,binding
1,"EGFP-tagged C-terminal fragment of Orc1 (270-861) (domain or fragment, UniProt Q13415 270-861) EITSPSKRSQPDKLQTLSPALKAPEKTRETGLSYTEDDKKASPEHRIILRTRIAASKTIDIREERTLTPISGGQRSSVVPSVILKPENIKKRDAKEAKAQNEATSTPHRIRRKSSVLTMNRIRQQLRFLGNSKSDQEEKEILPAAEISDSSSDEEEASTPPLPRRAPRTVSRNLRSSLKSSLHTLTKVPKKSLKPRTPRCAAPQIRSRSLAAQEPASVLEEARLRLHVSAVPESLPCREQEFQDIYNFVESKLLDHTGGCMYISGVPGTGKTATVHEVIRCLQQAAQANDVPPFQYIEVNGMKLTEPHQVYVQILQKLTGQKATANHAAELLAKQFCTRGSPQETTVLLVDELDLLWTHKQDIMYNLFDWPTHKEARLVVLAIANTMDLPERIMMNRVSSRLGLTRMCFQPYTYSQLQQILRSRLKHLKAFEDDAIQLVARKVAALSGDARRCLDICRRATEICEFSQQKPDSPGLVTIAHSMEAVDEMFSSSYITAIKNSSVLEQSFLRAILAEFRRSGLEEATFQQIYSQHVALCRMEGLPYPTMSETMAVCSHLGSCRLLLVEPSRNDLLLRVRLNVSQDDVLYALKDE",binds
2,"EGFP-tagged middle fragment of Orc1 (151-269) (domain or fragment, UniProt Q13415 151-269) EKTLFVKLSWNEKKFRPLSSELFAELNKPQESAAKCQKPVRAKSKSAESPSWTPAEHVAKRIESRHSASKSRQTPTHPLTPRARKRLELGNLGNPQMSQQTSCASLDSPGRIKRKVAFS",binds
3,"Orc2 fused to EGFP or BFP (FRET) (protein, UniProt Q13416 1-577) MSKPELKEDKMLEVHFVGDDDVLNHILDREGGAKLKKERAQLLVNPKKIIKKPEYDLEEDDQEVLKDQNYVEIMGRDVQESLKNGSATGGGNKVYSFQNRKHSEKMAKLASELAKTPQKSVSFSLKNDPEITINVPQSSKGHSASDKVQPKNNDKSEFLSTAPRSLRKRLIVPRSHSDSESEYSASNSEDDEGVAQEHEEDTNAVIFSQKIQAQNRVVSAPVGKETPSKRMKRDKTSDLVEEYFEAHSSSKVLTSDRTLQKLKRAKLDQQTLRNLLSKVSPSFSAELKQLNQQYEKLFHKWMLQLHLGFNIVLYGLGSKRDLLERFRTTMLQDSIHVVINGFFPGISVKSVLNSITEEVLDHMGTFRSILDQLDWIVNKFKEDSSLELFLLIHNLDSQMLRGEKSQQIIGQLSSLHNIYLIASIDHLNAPLMWDHAKQSLFNWLWYETTTYSPYTEETSYENSLLVKQSGSLPLSSLTHVLRSLTPNARGIFRLLIKYQLDNQDNPSYIGLSFQDFYQQCREAFLVNSDLTLRAQLTEFRDHKLIRTKKGTDGVEYLLIPVDNGTLTDFLEKEEEEA",no binding
4,"EGFP-Orc1 (1-144) (domain or fragment, UniProt Q13415 1-144) MAHYPTRLKTRKTYSWVGRPLLDRKLHYQTYREMCVKTEGCSTEIHIQIGQFVLIEGDDDENPYVAKLLELFEDDSDPPPKKRARVQWFVRFCEVPACKRHLLGRKPGAQEIFWYDYPACDSNINAETIIGLVRVIPLAPKDVV",no binding

# Biological target: T2, GST-Rb (379-928) (human)
# Experiment: pull-down; 1 ug GST fusion protein on glutathione-agarose beads, pretreated with DNase I and RNase A, incubated with in vitro translated [35S]-protein in 0.1 mg/ml ethidium bromide; SDS-PAGE, phosphoimaging; only the target purified
row,Binder,binding
1,"in vitro translated Orc1 fragment 270-861 (domain or fragment, UniProt Q13415 270-861, [35S]-labelled) EITSPSKRSQPDKLQTLSPALKAPEKTRETGLSYTEDDKKASPEHRIILRTRIAASKTIDIREERTLTPISGGQRSSVVPSVILKPENIKKRDAKEAKAQNEATSTPHRIRRKSSVLTMNRIRQQLRFLGNSKSDQEEKEILPAAEISDSSSDEEEASTPPLPRRAPRTVSRNLRSSLKSSLHTLTKVPKKSLKPRTPRCAAPQIRSRSLAAQEPASVLEEARLRLHVSAVPESLPCREQEFQDIYNFVESKLLDHTGGCMYISGVPGTGKTATVHEVIRCLQQAAQANDVPPFQYIEVNGMKLTEPHQVYVQILQKLTGQKATANHAAELLAKQFCTRGSPQETTVLLVDELDLLWTHKQDIMYNLFDWPTHKEARLVVLAIANTMDLPERIMMNRVSSRLGLTRMCFQPYTYSQLQQILRSRLKHLKAFEDDAIQLVARKVAALSGDARRCLDICRRATEICEFSQQKPDSPGLVTIAHSMEAVDEMFSSSYITAIKNSSVLEQSFLRAILAEFRRSGLEEATFQQIYSQHVALCRMEGLPYPTMSETMAVCSHLGSCRLLLVEPSRNDLLLRVRLNVSQDDVLYALKDE",binds
2,"in vitro translated Orc1 fragment 151-269 (domain or fragment, UniProt Q13415 151-269, [35S]-labelled) EKTLFVKLSWNEKKFRPLSSELFAELNKPQESAAKCQKPVRAKSKSAESPSWTPAEHVAKRIESRHSASKSRQTPTHPLTPRARKRLELGNLGNPQMSQQTSCASLDSPGRIKRKVAFS",binds weakly
3,"in vitro translated Orc1 LPGRK protein (mutated in the LxCxE motif of Orc1) (protein, UniProt Q13415 1-861, [35S]-labelled) MAHYPTRLKTRKTYSWVGRPLLDRKLHYQTYREMCVKTEGCSTEIHIQIGQFVLIEGDDDENPYVAKLLELFEDDSDPPPKKRARVQWFVRFCEVPACKRHLLGRKPGAQEIFWYDYPACDSNINAETIIGLVRVIPLAPKDVVPTNLKNEKTLFVKLSWNEKKFRPLSSELFAELNKPQESAAKCQKPVRAKSKSAESPSWTPAEHVAKRIESRHSASKSRQTPTHPLTPRARKRLELGNLGNPQMSQQTSCASLDSPGRIKRKVAFSEITSPSKRSQPDKLQTLSPALKAPEKTRETGLSYTEDDKKASPEHRIILRTRIAASKTIDIREERTLTPISGGQRSSVVPSVILKPENIKKRDAKEAKAQNEATSTPHRIRRKSSVLTMNRIRQQLRFLGNSKSDQEEKEILPAAEISDSSSDEEEASTPPLPRRAPRTVSRNLRSSLKSSLHTLTKVPKKSLKPRTPRCAAPQIRSRSLAAQEPASVLEEARLRLHVSAVPESLPGRKQEFQDIYNFVESKLLDHTGGCMYISGVPGTGKTATVHEVIRCLQQAAQANDVPPFQYIEVNGMKLTEPHQVYVQILQKLTGQKATANHAAELLAKQFCTRGSPQETTVLLVDELDLLWTHKQDIMYNLFDWPTHKEARLVVLAIANTMDLPERIMMNRVSSRLGLTRMCFQPYTYSQLQQILRSRLKHLKAFEDDAIQLVARKVAALSGDARRCLDICRRATEICEFSQQKPDSPGLVTIAHSMEAVDEMFSSSYITAIKNSSVLEQSFLRAILAEFRRSGLEEATFQQIYSQHVALCRMEGLPYPTMSETMAVCSHLGSCRLLLVEPSRNDLLLRVRLNVSQDDVLYALKDE",binds
4,"in vitro translated Orc1 fragment 529-861 (domain or fragment, UniProt Q13415 529-861, [35S]-labelled) CMYISGVPGTGKTATVHEVIRCLQQAAQANDVPPFQYIEVNGMKLTEPHQVYVQILQKLTGQKATANHAAELLAKQFCTRGSPQETTVLLVDELDLLWTHKQDIMYNLFDWPTHKEARLVVLAIANTMDLPERIMMNRVSSRLGLTRMCFQPYTYSQLQQILRSRLKHLKAFEDDAIQLVARKVAALSGDARRCLDICRRATEICEFSQQKPDSPGLVTIAHSMEAVDEMFSSSYITAIKNSSVLEQSFLRAILAEFRRSGLEEATFQQIYSQHVALCRMEGLPYPTMSETMAVCSHLGSCRLLLVEPSRNDLLLRVRLNVSQDDVLYALKDE",no binding
5,"in vitro translated Orc1 fragment 1-144 (domain or fragment, UniProt Q13415 1-144, [35S]-labelled) MAHYPTRLKTRKTYSWVGRPLLDRKLHYQTYREMCVKTEGCSTEIHIQIGQFVLIEGDDDENPYVAKLLELFEDDSDPPPKKRARVQWFVRFCEVPACKRHLLGRKPGAQEIFWYDYPACDSNINAETIIGLVRVIPLAPKDVV",no binding
